Test results taken from PubChem BioAssay AID445 (National Center for Advancing Translational Sciences (NCATS), 2006).
The list shows a part of the results. Further columns of the screen follow, without active or inactive calls. Compounds called inactive in the main read-out are mostly missing here. Potencies come from curve fits of mixed quality, noted in brackets.

Test: IkB Signaling
Details: ABC-DLBCL IkBa-CBG/CBR dual luciferase ratio (green luciferase fused to IkBa over red control in OCI-Ly3 lymphoma cells), 4 h; measured here: control luc red channel unless noted
Method in brief: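 Luminescence ratio of IκBα-fused green versus native red beetle luciferase in OCI-Ly3 cells, 4 h post-doxycycline with compound; red signal alone, scaled from basal (0%) to zero light (-100%), flagged nonspecific or cytotoxic effects.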

**Q.** With `O=C1CN(C(=O)Nc2ccccc2Cl)C(c2ccccc2)c2c(sc3c2CCCC3)N1` (stereo unspecified) as the compound, how does the AC50 read?
**A.** 15.8 µM [falling, partial curve]

**Q.** With `COc1ccc(-c2cc(C(=O)NCCc3ccc(OC)c(OC)c3)c3ccccc3n2)cc1` as the compound, how does the AC50 read?
**A.** 39.8 µM [falling, single point]

**Q.** For `CCOc1ccccc1N1CC(O)=C(c2nc3ccccc3s2)C1=N`, which AC50 is on record?
**A.** 15.8 µM [falling, partial curve]

**Q.** For `COc1ccc(NC(=O)C(C)Sc2cc(-c3ccccc3)nc(C)n2)cc1Cl` (stereo unspecified), which AC50 is on record?
**A.** 7.94 µM [falling, partial curve]

**Q.** For `COc1ccccc1NC(=O)CCn1cnc2onc(-c3ccc(F)cc3)c2c1=O`, which AC50 is on record?
**A.** 5.01 µM [rising, single point]

**Q.** With `CCCNC(=O)C1CCN(Cc2cc3ccccc3n2Cc2ccccc2)CC1` as the compound, how does the AC50 read?
**A.** 31.6 µM [falling, single point]

**Q.** For `O=C1c2nc3ccccn3c2C(=O)N1Cc1ccccc1`, which AC50 is on record?
**A.** 1.26 µM [falling, full curve]

**Q.** For `COc1ccc(-c2ccc(CCC(=O)O)n2CC(=O)Nc2cccc(Cl)c2C)cc1`, which AC50 is on record?
**A.** 12.6 µM [falling, single point]

**Q.** For `Cc1c(C(=O)N(Cc2ccc(N(C)C)cc2)Cc2ccco2)oc2cc(Br)ccc12`, which AC50 is on record?
**A.** 20 µM [falling, single point]

**Q.** Which AC50 does the source give for `COc1ccc(CNC(=O)CCc2c(C)nc3nc(CNC(=O)OC(C)(C)C)nn3c2C)cc1` here?
**A.** 20 µM [falling, single point]

**Q.** For `O=C(CN1C(=O)CC(c2ccco2)Sc2ccccc21)Nc1ccc(Br)cc1` (stereo unspecified), which AC50 is on record?
**A.** 0.1 µM [falling, full curve]

**Q.** Which AC50 does the source give for `COc1cccc(CN2C(=O)C3(SCC(=O)N3c3ccc(C(C)C)cc3)c3ccccc32)c1` (stereo unspecified) here?
**A.** 10 µM [falling, partial curve]

**Q.** With `NC(=O)CSc1nnnn1-c1cccc(O)c1` as the compound, how does the AC50 read?
**A.** 3.16 µM [rising, single point]

**Q.** For `O=c1cc(-c2ccccc2)nc(N2CCN(Cc3ccc4c(c3)OCO4)CC2)[nH]1`, which AC50 is on record?
**A.** 12.6 µM [falling, partial curve]

**Q.** With `O=C(c1ccc2c(c1)OCCO2)N(Cc1cccnc1)c1nc2c(F)cc(F)cc2s1` as the compound, how does the AC50 read?
**A.** 31.6 µM [falling, partial curve]

**Q.** For `COc1cccc(CNS(=O)(=O)c2ccc(-c3cc(C(F)(F)F)on3)s2)c1`, which AC50 is on record?
**A.** 2 µM [falling, full curve]

**Q.** Which AC50 does the source give for `CCOC(=O)c1ccc(N2C(=O)Cc3cc(OCC)c(OCC)cc3C2c2ccccc2)cc1` (stereo unspecified) here?
**A.** 31.6 µM [falling, single point]

**Q.** For `CCS(=O)(=O)Nc1ccc(-c2nnc(SCC(=O)OC)o2)cc1`, which AC50 is on record?
**A.** 5.01 µM [falling, partial curve]

**Q.** Which AC50 does the source give for `O=C(OCC(=O)N1CCN(C(=O)c2ccco2)CC1)c1cc(-c2ccc(F)cc2)nc2ccccc12` here?
**A.** 7.94 µM [falling, partial curve]

**Q.** With `Cc1ccccc1-c1nc(SCC(=O)NCC2CCCO2)c2c(=O)n(C)c(=O)n(C)c2n1` (stereo unspecified) as the compound, how does the AC50 read?
**A.** 31.6 µM [falling, single point]

**Q.** Which AC50 does the source give for `COCCNC(=O)c1ccc2c(=O)n(CCOC)c(SCC(=O)c3c[nH]c4ccccc34)nc2c1` here?
**A.** 15.8 µM [falling, partial curve]

**Q.** With `Cc1cccc(CCNC(=O)CCc2c(C)nc3ncnn3c2C)c1` as the compound, how does the AC50 read?
**A.** 20 µM [falling, partial curve]

**Q.** With `O=C(c1ccco1)N1CCN(CC(O)COc2ccc3oc4ccccc4c3c2)CC1` (stereo unspecified) as the compound, how does the AC50 read?
**A.** 15.8 µM [falling, partial curve]

**Q.** With `OC(CN1CCN(c2ccccc2)CC1)c1c[nH]c2ccccc12` (stereo unspecified) as the compound, how does the AC50 read?
**A.** 15.8 µM [falling, partial curve]

**Q.** With `COc1ccc(-n2nnnc2SCC(=O)Nc2ccc3c(c2)OCCO3)c(OC)c1` as the compound, how does the AC50 read?
**A.** 31.6 µM [falling, partial curve]

**Q.** For `COc1ccc(S(=O)(=O)Nc2cc3c(cc2N2CCOCC2)n(C)c(=O)n3C)cc1`, which AC50 is on record?
**A.** 15.8 µM [rising, partial curve]

**Q.** For `COc1cccc(NC(=O)c2ccc3[nH]c(C)cc(=O)c3c2)c1`, which AC50 is on record?
**A.** 39.8 µM [falling, single point]

**Q.** For `COc1ccc2[nH]cc(CCNc3nc(-c4c(C)noc4C)nc4ccccc34)c2c1`, which AC50 is on record?
**A.** 3.98 µM [falling, partial curve] [measured here: IkB-luc green channel]

**Q.** Which AC50 does the source give for `COC(=O)c1ccc(Cn2nc(-c3ccc(C)cc3)ccc2=O)cc1` here?
**A.** 20 µM [falling, single point]

**Q.** Which AC50 does the source give for `Cc1ccc(-n2c(SCC(=O)Nc3ccc4c(c3)OCCO4)nc3c([nH]c4ccccc43)c2=O)cc1` here?
**A.** 10 µM [rising, partial curve]

**Q.** For `Cn1c(SCc2ccccc2)nnc1-c1cccs1`, which AC50 is on record?
**A.** 20 µM [falling, single point]

**Q.** Which AC50 does the source give for `C=CCN(CC=C)CC(O)Cn1c2ccccc2c2ccccc21` (stereo unspecified) here?
**A.** 25.1 µM [falling, partial curve]

**Q.** With `COCCNC(=O)c1ccc(-c2nc(CN3CCc4ccccc43)c(C)o2)cc1` as the compound, how does the AC50 read?
**A.** 39.8 µM [rising, partial curve]

**Q.** With `CCCCNC(=O)Cn1cnc2sc(C)c(S(=O)(=O)N3CCN(c4ccccc4OC)CC3)c2c1=O` as the compound, how does the AC50 read?
**A.** 0.0794 µM [falling, full curve, poor fit]

**Q.** With `Cc1ccc(C)c2[nH]c(=O)c(CN(Cc3ccc4c(c3)OCO4)Cc3nnnn3Cc3ccco3)cc12` as the compound, how does the AC50 read?
**A.** 12.6 µM [falling, partial curve]

**Q.** With `CCOc1ccc2nc(NC(=O)c3ccccc3)sc2c1` as the compound, how does the AC50 read?
**A.** 0.2 µM [falling, full curve]

**Q.** Which AC50 does the source give for `O=C(Cn1ncc2c3ccccc3n(Cc3ccccc3F)c2c1=O)NCCCc1ccccc1` here?
**A.** 39.8 µM [rising, single point]

**Q.** With `CC1=CCC(COC(=O)Nc2ccccc2)CC1` (stereo unspecified) as the compound, how does the AC50 read?
**A.** 12.6 µM [falling, partial curve]

**Q.** Which AC50 does the source give for `CCOc1ccccc1C(=O)N(Cc1ccco1)Cc1ccccc1F` here?
**A.** 12.6 µM [falling, partial curve]

**Q.** With `Cc1ccc(C(=O)Nc2ccc(Br)cc2)cc1S(=O)(=O)NCc1ccccc1` as the compound, how does the AC50 read?
**A.** 10 µM [falling, partial curve]

**Q.** Which AC50 does the source give for `COc1ccccc1Cn1c(SCC(=O)C(C)(C)C)nc2ccccc2c1=O` here?
**A.** 39.8 µM [falling, single point]
